Measured values: article PMC7110135
The exact form of at least one protein or probe is not confirmed. Weaker means in comparison with the reference protein, sequence or condition of that experiment. For some assays here: At least one verdict was read from the data and is not stated in words by the source.

The chains behind the UniProt entries cited, without tags or fusion partners.
UniProt Q06609, whole entry: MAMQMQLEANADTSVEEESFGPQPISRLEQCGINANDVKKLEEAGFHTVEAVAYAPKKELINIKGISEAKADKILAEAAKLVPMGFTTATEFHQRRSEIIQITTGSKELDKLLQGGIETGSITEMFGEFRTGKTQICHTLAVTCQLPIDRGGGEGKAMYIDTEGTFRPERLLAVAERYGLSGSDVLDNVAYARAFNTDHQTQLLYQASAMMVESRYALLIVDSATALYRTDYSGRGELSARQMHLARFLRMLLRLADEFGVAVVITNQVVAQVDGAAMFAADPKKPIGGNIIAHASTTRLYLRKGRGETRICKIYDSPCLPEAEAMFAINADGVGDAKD
UniProt Q06609, whole entry F86E: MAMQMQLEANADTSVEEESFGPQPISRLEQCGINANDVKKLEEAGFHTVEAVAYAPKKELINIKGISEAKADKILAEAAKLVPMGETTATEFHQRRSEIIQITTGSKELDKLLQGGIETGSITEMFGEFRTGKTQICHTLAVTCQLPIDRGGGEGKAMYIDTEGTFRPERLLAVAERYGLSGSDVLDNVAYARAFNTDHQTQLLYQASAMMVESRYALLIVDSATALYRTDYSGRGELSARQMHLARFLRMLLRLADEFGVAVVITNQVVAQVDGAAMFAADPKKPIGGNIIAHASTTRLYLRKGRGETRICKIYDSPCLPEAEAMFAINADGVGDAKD

Assays:
RAD51 WT (Homo sapiens) = RAD51 WT (Homo sapiens) (UniProt Q06609); assay: SPR; conditions: Ca2+, SPR (Biacore T200, streptavidin CM5): 150 mM KCl, 20 mM Hepes pH 7.5, 2 mM DTT, 5 mg/ml BSA, 2.5 mM ATP, 10 mM CaCl2, 10% glycerol, 37 C, recombinant protein, protein details: untagged
[1] = target: RAD51 F86E (Homo sapiens) (UniProt Q06609); assay: SPR; conditions: 30 uM F86E, ATP, Ca2+; SPR (Biacore T200, streptavidin CM5): 150 mM KCl, 20 mM Hepes pH 7.5, 2 mM DTT, 5 mg/ml BSA, 2.5 mM ATP, 10 mM CaCl2, 10% glycerol, 37 C; recombinant protein; protein details: untagged; label: 5' Biotin (C6); single-stranded DNA

Sequence: AAAAAAAAAAAAAAAAAAAAAAAAAAAAAAAAAAAAAAAAAAAAAAAAAA [ssDNA dA-50]
- binding result (RAD51 WT (Homo sapiens); ATP, very slow association, comparable to dN-50p, label: 5' Biotin (C6), single-stranded DNA): binds more weakly
- binding result [1]: binds more weakly

Sequence: CGTCGATGAGCAGT [ssDNA dN-14]
- binding result (RAD51 WT (Homo sapiens); 3 uM RAD51, ATP, slow association, moderate dissociation, label: 3' Biotin-TEG, single-stranded DNA): binds more weakly

Sequence: CTGACTGC (double strand) [dsDNA dN-8p]
- binding result (RAD51 WT (Homo sapiens); 3 uM RAD51, ATP, slow association, moderate dissociation, two hexaethylene glycol linkers join 3' end of strand 1 to 5' end of strand 2, label: 3' Biotin-TEG on strand 2): binds more weakly

Sequence: TTGAGAGAGCAGACCACAATTATCACCTACACGACATCATTTTATATCAA [ssDNA dN-50]
- binding result [1]: binds more weakly
